Literature values, collected in patent US7736621B2, “Methods for gauging the effect of a depression treatment by determining the levels of beta-arrestin 1 and G-protein coupled receptor kinase 2” (Hypatia Ltd., priority 2004, dated 2010).
At least one compound was matched to its structure with a doubt left.

Test system: Gs and Gi proteins
Conditions: cited from earlier work

## CN1CCN(C2=Nc3cc(Cl)ccc3Nc3ccccc32)CC1 [clozapine]
Leukocytes of patients with schizophrenia
  Dopamine-induced Gs hyperfunction of untreated patients with schizophrenia: corrected

## [Li] [lithium, Lithium]
Leukocytes of patients with mania
  Elevated function of Gs and Gi proteins in patients during a manic episode: normalized
